From patent publication US12692274B2, “Tetrahydroisoquinoline derivatives for the treatment of red blood disorders and inflammatory diseases” (Sanofi, priority 2020, dated 2026)
Where “and” joins values, the source holds several entries; their conditions need not be identical. Equal entries are not always repeated. The match of structure and compound is tentative.

Sequences of proteins named here, by UniProt entry; tags and fusion partners are left off.
UniProt Q14145, whole entry: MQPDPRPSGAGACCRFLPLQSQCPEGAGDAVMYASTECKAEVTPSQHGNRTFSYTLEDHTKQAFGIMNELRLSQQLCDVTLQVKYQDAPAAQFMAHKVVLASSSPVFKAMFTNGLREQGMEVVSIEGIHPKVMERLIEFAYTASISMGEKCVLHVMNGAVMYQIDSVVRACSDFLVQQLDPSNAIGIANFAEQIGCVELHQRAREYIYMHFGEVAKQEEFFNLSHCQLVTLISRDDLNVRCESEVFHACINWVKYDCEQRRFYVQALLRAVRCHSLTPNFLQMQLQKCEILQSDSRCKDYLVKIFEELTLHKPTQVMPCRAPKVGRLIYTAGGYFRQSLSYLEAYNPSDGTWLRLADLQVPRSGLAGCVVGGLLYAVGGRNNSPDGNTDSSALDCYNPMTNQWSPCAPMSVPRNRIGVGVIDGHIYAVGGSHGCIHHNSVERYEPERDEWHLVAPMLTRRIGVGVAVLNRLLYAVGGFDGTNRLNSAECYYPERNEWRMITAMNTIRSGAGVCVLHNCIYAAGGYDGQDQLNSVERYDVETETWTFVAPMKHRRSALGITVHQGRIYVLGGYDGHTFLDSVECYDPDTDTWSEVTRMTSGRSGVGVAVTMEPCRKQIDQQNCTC

Tests used:
[1] = system: NQO1 activation in BEAS-2B cells; experiment: BEAS-2B cellular MTT assay of NQO1 activation, 0% HSA; conditions: read-out: BEAS EC50 (nM) Serum Free W
Procedure: The growth rate of the BEAS-2B cells changed based on the lot of BEGM SingleQuots in the BEGM media. The cell growth rate was determined for each lot of SingleQuots. Ideally, cells were thawed into media with the new lot of SingleQuots and grown for two passages before testing; however, growing an active culture in the new lot of media for two to three passages before testing was also acceptable. Until the cell growth rate was determined, cells were seeded at different densities (cells/cm^2) in multiple tissue culture flasks in order to avoid the cells becoming more than 70% confluent. Cells should not go above 70% confluent as the cells differentiate when they become confluent. After the cells were grown in the new lot of media as described above, the number of cells per well needed to seed in the collagen plates was determined by seeding different numbers of cells per well and incubating for 48 hours. […]
If complete media was to be used immediately, BEBM basal media was warmed to room temperature in the hood, but not as high as 37° C. […] Once all components were added, the label that comes with the SingleQuots kit was put on the bottle of media and the date was recorded. […]
Media was added to each flask to a total volume of 8-10 mL per flask and transferred to 15 mL conical tube(s). […] The suspension was mixed with a pipette, an aliquot was removed, and the cells were counted. […]

[2] = target: HIS-Keap1 full length / Biotin-Nrf2 (16-mer) (Homo sapiens, UniProt Q14145); experiment: Nrf2-Keap1 biochemical assay (TR-FRET); conditions: read-out: ENZ IC50

With Cc1cc2ncc1C(CC(=O)O)c1ccc3c(c1)CN(CC3)C(=O)c1ccc(cc1)CCCCCO2 (racemic) the EC50 [1] was 0.1 nM and the IC50 [2] was 0.3 nM and 0.4 nM.
